The results in this text go back to patent US5500807A, “Selection method for pharmacologically active compounds” (The Regents of the University of California, priority 1992, dated 1996).

The test system of the data set is thyroid hormone receptor in nuclei of intact GC cells. The class given is cell-based, rat. To be noted: Allfit program.

SMILES strings stand for the structures.

Consider `CCCCc1oc2ccccc2c1C(=O)c1cc(I)c(OCCN(CC)CC)c(I)c1` [amiodarone, 2-butyl-3-[3,5-diiodo-4-(β-diethylaminoethoxy)-benzoyl]benzofuran], for which the “b (slope factor)” value came to 0.9 ± 0.4. Next, `N[C@@H](Cc1cc(I)c(Oc2ccc(O)c(I)c2)c(I)c1)C(=O)O` [T3, triiodothyronine]: 1.0 ± 0.1.
